The values below come from paper doi:10.1101/2025.08.29.668156.

By UniProt entry, the sequences of proteins in these tests, tags left out.
UniProt P02545: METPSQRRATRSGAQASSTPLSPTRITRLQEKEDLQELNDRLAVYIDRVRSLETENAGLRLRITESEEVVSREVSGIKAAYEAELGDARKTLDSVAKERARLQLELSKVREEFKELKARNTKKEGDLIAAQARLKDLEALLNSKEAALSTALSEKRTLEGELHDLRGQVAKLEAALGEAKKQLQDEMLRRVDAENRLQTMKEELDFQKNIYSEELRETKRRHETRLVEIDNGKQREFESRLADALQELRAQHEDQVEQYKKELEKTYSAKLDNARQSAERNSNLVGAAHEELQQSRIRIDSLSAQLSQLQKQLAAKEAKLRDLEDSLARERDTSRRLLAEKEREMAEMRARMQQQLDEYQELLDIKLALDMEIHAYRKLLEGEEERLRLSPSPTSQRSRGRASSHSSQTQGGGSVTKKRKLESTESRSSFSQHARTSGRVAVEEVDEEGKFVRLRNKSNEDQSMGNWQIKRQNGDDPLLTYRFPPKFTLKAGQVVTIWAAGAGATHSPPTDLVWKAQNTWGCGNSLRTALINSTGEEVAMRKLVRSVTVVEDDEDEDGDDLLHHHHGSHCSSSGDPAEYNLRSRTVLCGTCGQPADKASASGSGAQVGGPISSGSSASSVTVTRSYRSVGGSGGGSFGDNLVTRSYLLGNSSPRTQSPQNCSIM
UniProt P20339: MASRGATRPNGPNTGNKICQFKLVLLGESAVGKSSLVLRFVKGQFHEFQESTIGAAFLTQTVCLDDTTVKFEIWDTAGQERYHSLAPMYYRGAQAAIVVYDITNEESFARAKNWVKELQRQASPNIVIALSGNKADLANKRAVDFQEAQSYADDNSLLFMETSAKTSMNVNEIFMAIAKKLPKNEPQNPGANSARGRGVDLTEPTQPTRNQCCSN

Common to all, as to assay: proximity labelling
Experiment [1] addresses LMNA N-terminally fused to miniTurbo (UniProt P02545).
Experiment [2] has as its target LMNA N-terminally fused to TurboID (UniProt P02545).
The target in experiment [3] is LMNA N-terminally fused to BASU (UniProt P02545).
The target of experiment [4] is LMNA N-terminally fused to ultraID (UniProt P02545).
In experiment [5] the target is miniTurbo-RAB5A (UniProt P20339).
Experiment [6] concerns the target ultraID-RAB5A (UniProt P20339).

These are yes or no findings as the source states them, for the method shown. Binding seen in cells or lysates may run through a third protein. These calls come from enrichment with a bait or labelling near it, and not all partners need be listed.

B1: LEMD3 (protein, UniProt Q9Y2U8 1-911)
chain: MAAAAASAPQQLSDEELFSQLRRYGLSPGPVTESTRPVYLKKLKKLREEEQQQHRSGGRGNKTRNSNNNNTAAATVAAAGPAAAAAAGMGVRPVSGDLSYLRTPGGLCRISASGPESLLGGPGGASAAPAAGSKVLLGFSSDESDVEASPRDQAGGGGRKDRASLQYRGLKAPPAPLAASEVTNSNSAERRKPHSWWGARRPAGPELQTPPGKDGAVEDEEGEGEDGEERDPETEEPLWASRTVNGSRLVPYSCRENYSDSEEEDDDDVASSRQVLKDDSLSRHRPRRTHSKPLPPLTAKSAGGRLETSVQGGGGLAMNDRAAAAGSLDRSRNLEEAAAAEQGGGCDQVDSSPVPRYRVNAKKLTPLLPPPLTDMDSTLDSSTGSLLKTNNHIGGGAFSVDSPRIYSNSLPPSAAVAASSSLRINHANHTGSNHTYLKNTYNKPKLSEPEEELLQQFKREEVSPTGSFSAHYLSMFLLTAACLFFLILGLTYLGMRGTGVSEDGELSIENPFGETFGKIQESEKTLMMNTLYKLHDRLAQLAGDHECGSSSQRTLSVQEAAAYLKDLGPEYEGIFNTSLQWILENGKDVGIRCVGFGPEEELTNITDVQFLQSTRPLMSFWCRFRRAFVTVTHRLLLLCLGVVMVCVVLRYMKYRWTKEEEETRQMYDMVVKIIDVLRSHNEACQENKDLQPYMPIPHVRDSLIQPHDRKKMKKVWDRAVDFLAANESRVRTETRRIGGADFLVWRWIQPSASCDKILVIPSKVWQGQAFHLDRRNSPPNSLTPCLKIRNMFDPVMEIGDQWHLAIQEAILEKCSDNDGIVHIAVDKNSREGCVYVKCLSPEYAGKAFKALHGSWFDGKLVTVKYLRLDRYHHRFPQALTSNTPLKPSNKHMNSMSHLRLRTGLTNSQGSS
As for B1, the binding entry in experiment [1], in experiment [2], in experiment [3] and in experiment [4] was “binds” each time.

B2: ZMPSTE24 (protein, UniProt O75844 1-475)
chain: MGMWASLDALWEMPAEKRIFGAVLLFSWTVYLWETFLAQRQRRIYKTTTHVPPELGQIMDSETFEKSRLYQLDKSTFSFWSGLYSETEGTLILLFGGIPYLWRLSGRFCGYAGFGPEYEITQSLVFLLLATLFSALTGLPWSLYNTFVIEEKHGFNQQTLGFFMKDAIKKFVVTQCILLPVSSLLLYIIKIGGDYFFIYAWLFTLVVSLVLVTIYADYIAPLFDKFTPLPEGKLKEEIEVMAKSIDFPLTKVYVVEGSKRSSHSNAYFYGFFKNKRIVLFDTLLEEYSVLNKDIQEDSGMEPRNEEEGNSEEIKAKVKNKKQGCKNEEVLAVLGHELGHWKLGHTVKNIIISQMNSFLCFFLFAVLIGRKELFAAFGFYDSQPTLIGLLIIFQFIFSPYNEVLSFCLTVLSRRFEFQADAFAKKLGKAKDLYSALIKLNKDNLGFPVSDWLFSMWHYSHPPLLERLQALKTMKQH
For B2, the binding result in experiment [2] and in experiment [4] was “binds” each time.

B3: SYNE3 (Nesprin-3) (protein, UniProt Q6ZMZ3 1-975)
chain: MTQQPQDDFDRSVEDAQAWMKAVQDQLQVNDNTQGPRAALEARLWETEKICQLEPEGRVRVDLVLRMAEALLACCPGDQKPGILARLKDIKAQWEETVTYMTHCHSRIEWVWLHWSEYLLARDEFYRWFQKMMVTLEPHIELQLGLKEKQWQLSHAQVLLHNVDNQAVLLDRLLEEAASLFNRIGDPSVDEDAQKRMKAEYDAVKAKAQKRVDLLEQVAREHEEYQAGVDEFQLWLKAVVEKVNGCLGRNCKLPITQRLSTLQDIAKDFPRGEESLETLEEQSAGVIRNTSPLGAEKITGELEEMRKVLEKLRALWEEEEERLRGLLRSRGAWEQQIKQLEAELSEFRMVLQRLAQEGLQPAAKAGTEDELVAHWRRYSATRAALASEEPRVDRLQAQLKELIVFPHNLKPLSDSVIATIQEYQSLKVKSARLRNAAAVELWQHFQRPLQDLQLWKALAQRLLEVTASLPDLPSLHTFLPQIEAALMESSRLKELLTMLQLKKDLLIGIFGQERATALLEQVAGSMRDRDLLHNSLLQRKSKLQSLLAQHKDFGAAFEPLQRKLLDLQVRVQAEKGLQRDLPGKQAQLSRLQGLQEEGLDLGAQMEAARPLVQENPNHQHKMDQLSSDFQALQRSLEDLVDRCRQSVQEHCTFSHQLLELRQWIVVTTQKLEAHRGEAGPGDAESQEAEFERLVAEFPEKEAQLSLVEAQGWLVMEKSSPEGAAVVQEELRELAESWRALRLLEESLLSLIRNWHLQRMEVDSGKKMVFTNNIPKSGFLINPMDPIPRHRRRANLLQEEEGSHEDFSQLLRNFGQWLQVENSKLVRIIAMRTSTAEDLRTRKSKLQELEARVPEGQHLFENLLRLGPARGTSDELEDLRYQWMLYKSKLKDSGHLLTQSSPGEPTGFQKTRRWRGLGSLFRRACCVALPLQLLLLLFLLLLFLLPIREEDRSCTLANNFARSFTLMLRYNGPPPT
As for B3, the binding result in experiment [1], in experiment [2], in experiment [3] and in experiment [4] was “binds” throughout.

B4: APPL1 (protein, UniProt Q9UKG1 1-709)
chain: MPGIDKLPIEETLEDSPQTRSLLGVFEEDATAISNYMNQLYQAMHRIYDAQNELSAATHLTSKLLKEYEKQRFPLGGDDEVMSSTLQQFSKVIDELSSCHAVLSTQLADAMMFPITQFKERDLKEILTLKEVFQIASNDHDAAINRYSRLSKKRENDKVKYEVTEDVYTSRKKQHQTMMHYFCALNTLQYKKKIALLEPLLGYMQAQISFFKMGSENLNEQLEEFLANIGTSVQNVRREMDSDIETMQQTIEDLEVASDPLYVPDPDPTKFPVNRNLTRKAGYLNARNKTGLVSSTWDRQFYFTQGGNLMSQARGDVAGGLAMDIDNCSVMAVDCEDRRYCFQITSFDGKKSSILQAESKKDHEEWICTINNISKQIYLSENPEETAARVNQSALEAVTPSPSFQQRHESLRPAAGQSRPPTARTSSSGSLGSESTNLAALSLDSLVAPDTPIQFDIISPVCEDQPGQAKAFGQGGRRTNPFGESGGSTKSETEDSILHQLFIVRFLGSMEVKSDDHPDVVYETMRQILAARAIHNIFRMTESHLLVTCDCLKLIDPQTQVTRLTFPLPCVVLYATHQENKRLFGFVLRTSSGRSESNLSSVCYIFESNNEGEKICDSVGLAKQIALHAELDRRASEKQKEIERVKEKQQKELNKQKQIEKDLEEQSRLIAASSRPNQASSEGQFVVLSSSQSEESDLGEGGKKRESEA
For the molecule B4, the binding result in experiment [5] and in experiment [6] was “binds” in each case.

B5: VPS8 (protein, UniProt Q8N3P4 1-1428)
chain: MENEPDHENVEQSLCAKTSEEELNKSFNLEASLSKFSYIDMDKELEFKNDLIDDKEFDIPQVDTPPTLESILNETDDEDESFILEDPTLLNIDTIDSHSYDTSSVASSDSGDRTNLKRKKKLPDSFSLHGSVMRHSLLKGISAQIVSAADKVDAGLPTAIAVSSLIAVGTSHGLALIFGKDQNQALRLCLGSTSVGGQYGAISALSINNDCSRLLCGFAKGQITMWDLASGKLLRSITDAHPPGTAILHIKFTDDPTLAICNDSGGSVFELTFKRVMGVRTCESRCLFSGSKGEVCCIEPLHSKPELKDHPITQFSLLAMASLTKILVIGLKPSLKVWMTFPYGRMDPSSVPLLAWHFVAVQNYVNPMLAFCRGDVVHFLLVKRDESGAIHVTKQKHLHLYYDLINFTWINSRTVVLLDSVEKLHVIDRQTQEELETVEISEVQLVYNSSHFKSLATGGNVSQALALVGEKACYQSISSYGGQIFYLGTKSVYVMMLRSWRERVDHLLKQDCLTEALALAWSFHEGKAKAVVGLSGDASKRKAIVADRMVEILFHYADRALKKCPDQGKIQVMEQHFQDMVPVIVDYCLLLQRKDLLFSQMYDKLSENSVAKGVFLECLEPYILSDKLVGITPQVMKDLIVHFQDKKLMENVEALIVHMDITSLDIQQVVLMCWENRLYDAMIYVYNRGMNEFISPMEKLFRVIAPPLNAGKTLTDEQVVMGNKLLVYISCCLAGRAYPLGDIPEDLVPLVKNQVFEFLIRLHSAEASPEEEIYPYIRTLLHFDTREFLNVLALTFEDFKNDKQAVEYQQRIVDILLKVMVENSDFTPSQVGCLFTFLARQLAKPDNTLFVNRTLFDQVLEFLCSPDDDSRHSERQQVLLELLQAGGIVQFEESRLIRMAEKAEFYQICEFMYEREHQYDKIIDCYLRDPLREEEVFNYIHNILSIPGHSAEEKQSVWQKAMDHIEELVSLKPCKAAELVATHFSGHIETVIKKLQNQVLLFKFLRSLLDPREGIHVNQELLQISPCITEQFIELLCQFNPTQVIETLQVLECYRLEETIQITQKYQLHEVTAYLLEKKGDIHGAFLIMLERLQSKLQEVTHQGENTKEDPSLKDVEDTMVETIALCQRNSHNLNQQQREALWFPLLEAMMAPQKLSSSAIPHLHSEALKSLTMQVLNSMAAFIALPSILQRILQDPVYGKGKLGEIQGLILGMLDTFNYEQTLLETTTSLLNQDLHWSLCNLRASVTRGLNPKQDYCSICLQQYKRRQEMADEIIVFSCGHLYHSFCLQNKECTVEFEGQTRWTCYKCSSSNKVGKLSENSSEIKKGRITPSQVKMSPSYHQSKGDPTAKKGTSEPVLDPQQIQAFDQLCRLYRGSSRLALLTELSQNRSSESYRPFSGSQSAPAFNSIFQNENFQLQLIPPPVTED
B5: the binding entry in experiment [5] and in experiment [6] was “binds” throughout.

B6: DNAJC7 (protein, UniProt Q99615 1-494)
chain: MAAAAECDVVMAATEPELLDDQEAKREAETFKEQGNAYYAKKDYNEAYNYYTKAIDMCPKNASYYGNRAATLMMLGRFREALGDAQQSVRLDDSFVRGHLREGKCHLSLGNAMAACRSFQRALELDHKNAQAQQEFKNANAVMEYEKIAETDFEKRDFRKVVFCMDRALEFAPACHRFKILKAECLAMLGRYPEAQSVASDILRMDSTNADALYVRGLCLYYEDCIEKAVQFFVQALRMAPDHEKACIACRNAKALKAKKEDGNKAFKEGNYKLAYELYTEALGIDPNNIKTNAKLYCNRGTVNSKLRKLDDAIEDCTNAVKLDDTYIKAYLRRAQCYMDTEQYEEAVRDYEKVYQTEKTKEHKQLLKNAQLELKKSKRKDYYKILGVDKNASEDEIKKAYRKRALMHHPDRHSGASAEVQKEEEKKFKEVGEAFTILSDPKKKTRYDSGQDLDEEGMNMGDFDPNNIFKAFFGGPGGFSFEASGPGNFFFQFG
Take B6: in experiment [5], the binding result is on record as “binds”.
